B1: RPF2 (protein, UniProt Q9H7B2 1-306, looked up)
Ribosome production factor 2 …: MDTLDRVVKPKTKRAKRFLEKREPKLNENIKNAMLIKGGNANATVTKVLKDVYALKKPYGVLYKKKNITRPFEDQTSLEFFSKKSDCSLFMFGSHNKKRPNNLVIGRMYDYHVLDMIELGIENFVSLKDIKNSKCPEGTKPMLIFAGDDFDVTEDYRRLKSLLIDFFRGPTVSNIRLAGLEYVLHFTALNGKIYFRSYKLLLKKSGCRTPRIELEEMGPSLDLVLRRTHLASDDLYKLSMKMPKALKPKKKKNISHDTFGTTYGRIHMQKQDLSKLQTRKMKGLKKRPAERITEDHEKKSKRIKKN
B2: TFIP11 (protein, UniProt Q9UBB9 1-837, looked up)
Tuftelin-interacting protein …: MSLSHLYRDGEGRIDDDDDERENFEITDWDLQNEFNPNRQRHWQTKEEATYGVWAERDSDDERPSFGGKRARDYSAPVNFISAGLKKGAAEEAELEDSDDEEKPVKQDDFPKDFGPRKLKTGGNFKPSQKGFAGGTKSFMDFGSWERHTKGIGQKLLQKMGYVPGRGLGKNAQGIINPIEAKQRKGKGAVGAYGSERTTQSMQDFPVVDSEEEAEEEFQKELSQWRKDPSGSKKKPKYSYKTVEELKAKGRISKKLTAPQKELSQVKVIDMTGREQKVYYSYSQISHKHNVPDDGLPLQSQQLPQSGKEAKAPGFALPELEHNLQLLIDLTEQEIIQNDRQLQYERDMVVNLFHELEKMTEVLDHEERVISNLSKVLEMVEECERRMQPDCSNPLTLDECARIFETLQDKYYEEYRMSDRVDLAVAIVYPLMKEYFKEWDPLKDCTYGTEIISKWKSLLENDQLLSHGGQDLSADAFHRLIWEVWMPFVRNIVTQWQPRNCDPMVDFLDSWVHIIPVWILDNILDQLIFPKLQKEVENWNPLTDTVPIHSWIHPWLPLMQARLEPLYSPIRSKLSSALQKWHPSDSSAKLILQPWKDVFTPGSWEAFMVKNIVPKLGMCLGELVINPHQQHMDAFYWVIDWEGMISVSSLVGLLEKHFFPKWLQVLCSWLSNSPNYEEITKWYLGWKSMFSDQVLAHPSVKDKFNEALDIMNRAVSSNVGAYMQPGARENIAYLTHTERRKDFQYEAMQERREAENMAQRGIGVAASSVPMNFKDLIETKAEEHNIVFMPVIGKRHEGKQLYTFGRIVIYIDRGVVFVQGEKTWVPTSLQSLIDMAK
B3: RFC1 (protein, UniProt P35251 1-1148, looked up)
Replication factor C subunit 1: MDIRKFFGVIPSGKKLVSETVKKNEKTKSDEETLKAKKGIKEIKVNSSRKEDDFKQKQPSKKKRIIYDSDSESEETLQVKNAKKPPEKLPVSSKPGKISRQDPVTYISETDEEDDFMCKKAASKSKENGRSTNSHLGTSNMKKNEENTKTKNKPLSPIKLTPTSVLDYFGTGSVQRSNKKMVASKRKELSQNTDESGLNDEAIAKQLQLDEDAELERQLHEDEEFARTLAMLDEEPKTKKARKDTEAGETFSSVQANLSKAEKHKYPHKVKTAQVSDERKSYSPRKQSKYESSKESQQHSKSSADKIGEVSSPKASSKLAIMKRKEESSYKEIEPVASKRKENAIKLKGETKTPKKTKSSPAKKESVSPEDSEKKRTNYQAYRSYLNREGPKALGSKEIPKGAENCLEGLIFVITGVLESIERDEAKSLIERYGGKVTGNVSKKTNYLVMGRDSGQSKSDKAAALGTKIIDEDGLLNLIRTMPGKKSKYEIAVETEMKKESKLERTPQKNVQGKRKISPSKKESESKKSRPTSKRDSLAKTIKKETDVFWKSLDFKEQVAEETSGDSKARNLADDSSENKVENLLWVDKYKPTSLKTIIGQQGDQSCANKLLRWLRNWQKSSSEDKKHAAKFGKFSGKDDGSSFKAALLSGPPGVGKTTTASLVCQELGYSYVELNASDTRSKSSLKAIVAESLNNTSIKGFYSNGAASSVSTKHALIMDEVDGMAGNEDRGGIQELIGLIKHTKIPIICMCNDRNHPKIRSLVHYCFDLRFQRPRVEQIKGAMMSIAFKEGLKIPPPAMNEIILGANQDIRQVLHNLSMWCARSKALTYDQAKADSHRAKKDIKMGPFDVARKVFAAGEETAHMSLVDKSDLFFHDYSIAPLFVQENYIHVKPVAAGGDMKKHLMLLSRAADSICDGDLVDSQIRSKQNWSLLPAQAIYASVLPGELMRGYMTQFPTFPSWLGKHSSTGKHDRIVQDLALHMSLRTYSSKRTVNMDYLSLLRDALVQPLTSQGVDGVQDVVALMDTYYLMKEDFENIMEISSWGGKPSPFSKLDPKVKAAFTRAYNKEAHLTPYSLQAIKASRHSTSPSLDSEYNEELNEDDSQSDEKDQDAIETDAMIKKKTKSSKPSKPEKDKEPRKGKGKSSKK
B4: NOP56 (protein, UniProt O00567 1-594, looked up)
Nucleolar protein 56: MVLLHVLFEHAVGYALLALKEVEEISLLQPQVEESVLNLGKFHSIVRLVAFCPFASSQVALENANAVSEGVVHEDLRLLLETHLPSKKKKVLLGVGDPKIGAAIQEELGYNCQTGGVIAEILRGVRLHFHNLVKGLTDLSACKAQLGLGHSYSRAKVKFNVNRVDNMIIQSISLLDQLDKDINTFSMRVREWYGYHFPELVKIINDNATYCRLAQFIGNRRELNEDKLEKLEELTMDGAKAKAILDASRSSMGMDISAIDLINIESFSSRVVSLSEYRQSLHTYLRSKMSQVAPSLSALIGEAVGARLIAHAGSLTNLAKYPASTVQILGAEKALFRALKTRGNTPKYGLIFHSTFIGRAAAKNKGRISRYLANKCSIASRIDCFSEVPTSVFGEKLREQVEERLSFYETGEIPRKNLDVMKEAMVQAEEAAAEITRKLEKQEKKRLKKEKKRLAALALASSENSSSTPEECEEMSEKPKKKKKQKPQEVPQENGMEDPSISFSKPKKKKSFSKEELMSSDLEETAGSTSIPKRKKSTPKEETVNDPEEAGHRSGSKKKRKFSKEEPVSSGPEEAVGKSSSKKKKKFHKASQED
B5: RPRD2 (protein, UniProt Q5VT52 2-1461, looked up)
Regulation of nuclear …: AAGGGGGSSKASSSSASSAGALESSLDRKFQSVTNTMESIQGLSSWCIENKKHHSTIVYHWMKWLRRSAYPHRLNLFYLANDVIQNCKRKNAIIFRESFADVLPEAAALVKDPSVSKSVERIFKIWEDRNVYPEEMIVALREALSTTFKTQKQLKENLNKQPNKQWKKSQTSTNPKAALKSKIVAEFRSQALIEELLLYKRSEDQIELKEKQLSTMRVDVCSTETLKCLKDKTGGKKFSKEFEEASSKLEEFVNGLDKQVKNGPSLTEALENAGIFYEAQYKEVKVVANAYKTFANRVNNLKKKLDQLKSTLPDPEESPVPSPSMDAPSPTGSESPFQGMGGEESQSPTMESEKSATPEPVTDNRDVEDMELSDVEDDGSKIIVEDRKEKPAEKSAVSTSVPTKPTENISKASSCTPVPVTMTATPPLPKPVNTSLSPSPALALPNLANVDLAKISSILSSLTSVMKNTGVSPASRPSPGTPTSPSNLTSGLKTPAPATTTSHNPLANILSKVEITPESILSALSKTQTQSAPALQGLSSLLQSVTGNPVPASEAASQSTSASPANTTVSTIKGRNLPSSAQPFIPKSFNYSPNSSTSEVSSTSASKASIGQSPGLPSTTFKLPSNSLGFTATHNTSPAAPPTEVTICQSSEVSKPKLESESTSPSLEMKIHNFLKGNPGFSGLNLNIPILSSLGSSAPSESHPSDFQRGPTSTSIDNIDGTPVRDERSGTPTQDEMMDKPTSSSVDTMSLLSKIISPGSSTPSSTRSPPPGRDESYPRELSNSVSTYRPFGLGSESPYKQPSDGMERPSSLMDSSQEKFYPDTSFQEDEDYRDFEYSGPPPSAMMNLEKKPAKSILKSSKLSDTTEYQPILSSYSHRAQEFGVKSAFPPSVRALLDSSENCDRLSSSPGLFGAFSVRGNEPGSDRSPSPSKNDSFFTPDSNHNSLSQSTTGHLSLPQKQYPDSPHPVPHRSLFSPQNTLAAPTGHPPTSGVEKVLASTISTTSTIEFKNMLKNASRKPSDDKHFGQAPSKGTPSDGVSLSNLTQPSLTATDQQQQEEHYRIETRVSSSCLDLPDSTEEKGAPIETLGYHSASNRRMSGEPIQTVESIRVPGKGNRGHGREASRVGWFDLSTSGSSFDNGPSSASELASLGGGGSGGLTGFKTAPYKERAPQFQESVGSFRSNSFNSTFEHHLPPSPLEHGTPFQREPVGPSSAPPVPPKDHGGIFSRDAPTHLPSVDLSNPFTKEAALAHAAPPPPPGEHSGIPFPTPPPPPPPGEHSSSGGSGVPFSTPPPPPPPVDHSGVVPFPAPPLAEHGVAGAVAVFPKDHSSLLQGTLAEHFGVLPGPRDHGGPTQRDLNGPGLSRVRESLTLPSHSLEHLGPPHGGGGGGGSNSSSGPPLGPSHRDTISRSGIILRSPRPDFRPREPFLSRDPFHSLKRPRPPFARGPPFFAPKRPFFPPRY
B6: XPC (protein, UniProt Q01831 2-940, looked up)
DNA repair protein …: ARKRAAGGEPRGRELRSQKSKAKSKARREEEEEDAFEDEKPPKKSLLSKVSQGKRKRGCSHPGGSADGPAKKKVAKVTVKSENLKVIKDEALSDGDDLRDFPSDLKKAHHLKRGATMNEDSNEEEEESENDWEEVEELSEPVLGDVRESTAFSRSLLPVKPVEIEIETPEQAKTRERSEKIKLEFETYLRRAMKRFNKGVHEDTHKVHLLCLLANGFYRNNICSQPDLHAIGLSIIPARFTRVLPRDVDTYYLSNLVKWFIGTFTVNAELSASEQDNLQTTLERRFAIYSARDDEELVHIFLLILRALQLLTRLVLSLQPIPLKSATAKGKKPSKERLTADPGGSSETSSQVLENHTKPKTSKGTKQEETFAKGTCRPSAKGKRNKGGRKKRSKPSSSEEDEGPGDKQEKATQRRPHGRERRVASRVSYKEESGSDEAGSGSDFELSSGEASDPSDEDSEPGPPKQRKAPAPQRTKAGSKSASRTHRGSHRKDPSLPAASSSSSSSKRGKKMCSDGEKAEKRSIAGIDQWLEVFCEQEEKWVCVDCVHGVVGQPLTCYKYATKPMTYVVGIDSDGWVRDVTQRYDPVWMTVTRKCRVDAEWWAETLRPYQSPFMDREKKEDLEFQAKHMDQPLPTAIGLYKNHPLYALKRHLLKYEAIYPETAAILGYCRGEAVYSRDCVHTLHSRDTWLKKARVVRLGEVPYKMVKGFSNRARKARLAEPQLREENDLGLFGYWQTEEYQPPVAVDGKVPRNEFGNVYLFLPSMMPIGCVQLNLPNLHRVARKLDIDCVQAITGFDFHGGYSHPVTDGYIVCEEFKDVLLTAWENEQAVIERKEKEKKEKRALGNWKLLAKGLLIRERLKRRYGPKSEAAAPHTDAGGGLSSDEEEGTSSQAEAARILAASWPQNREDEEKQKLKGGPKKTKREKKAAASHLFPFEQL

Test system: BAF complex subunits and histone proteins
Test: Mass spectrometry proteomics of purified HA-SS18 WT and HA-SS18-SSX1 complexes (Tables 5A-5E)
Design: species or system human
Settings: for Total / Unique: HA-SS18SSX1_CHR_peptides; for Total: total peptides of the identified protein; for Unique: unique peptides of the identified protein; for Total (total peptides) / Unique (unique peptides) / Total (peptides) / Unique (peptides): HEK-293T
[1] = HA-SS18WT_CHR_peptides: protein identified in HA-SS18 WT BAF complex purification from nuclease-treated solubilized chromatin (CHR)
[2] = HA-SS18SSX1 purification, NE (soluble nuclear extract) fraction, peptides per identified protein
[3] = HA-SS18WT_NE_peptides: HA-SS18 WT complexes purified from nuclear extract (NE), label = protein identified (Gene Symbol)
[4] = HA-SS18SSX1_CHR_peptides: protein identified in the HA-SS18-SSX1 purification from solubilized chromatin (CHR)
[5] = HA-SS18WT_CHR_peptides: HA-SS18 WT purification from nuclease-treated solubilized chromatin (CHR), label = protein identified

Molecule	Total	Unique	Total (total peptides) [1]	Unique (unique peptides) [1]	Total (total peptides) [2]	Unique (unique peptides) [2]	Total (peptides) [3]	Unique (peptides) [3]	Total (total peptides) [4]	Unique (unique peptides) [4]	Total (peptides) [5]	Unique (peptides) [5]
B1	3	3	2	2	–	–	–	–	–	–	–	–
B2	3	3	–	–	10	10	9	8	–	–	–	–
B3	3	3	–	–	9	9	6	6	–	–	–	–
B4	–	–	–	–	16	13	10	10	42	31	22	18
B5	3	3	–	–	–	–	–	–	–	–	–	–
B6	3	3	1	1	4	4	–	–	–	–	–	–

Source: patent US20250283871A1, “COMPOSITIONS AND METHODS FOR MODULATING THE INTERACTION BETWEEN SS18-SSX FUSION ONCOPROTEIN AND NUCLEOSOMES” (Dana-Farber Cancer Institute, Inc., priority 2020, published 2025)
